Reference: paper PMC7819943, “Rice protein-binding microarrays: a tool to detect cis-acting elements near promoter regions in rice”
This is one part of the list.

These sequences were tested against T1, OsSMF1 (Oryza sativa, UniProt Q6ZLB0 1-436) (assay: protein-binding microarray (RPBM); PBS, 2% BSA, 51.3 ng/ul salmon testes DNA, 50 uM zinc acetate, 200 nM TF, 25 C, 1 h; high values mean tight binding). Conditions: protein: recombinant; tags: N-terminal polyhistidine and DsRed monomer fusion (pET32a); chain copies: 2; label: CyDye5-dUTP incorporated in the synthesized complementary strand; 3' TTTTT single-stranded linker to array surface; dsDNA, one strand shown.
T1 sequence: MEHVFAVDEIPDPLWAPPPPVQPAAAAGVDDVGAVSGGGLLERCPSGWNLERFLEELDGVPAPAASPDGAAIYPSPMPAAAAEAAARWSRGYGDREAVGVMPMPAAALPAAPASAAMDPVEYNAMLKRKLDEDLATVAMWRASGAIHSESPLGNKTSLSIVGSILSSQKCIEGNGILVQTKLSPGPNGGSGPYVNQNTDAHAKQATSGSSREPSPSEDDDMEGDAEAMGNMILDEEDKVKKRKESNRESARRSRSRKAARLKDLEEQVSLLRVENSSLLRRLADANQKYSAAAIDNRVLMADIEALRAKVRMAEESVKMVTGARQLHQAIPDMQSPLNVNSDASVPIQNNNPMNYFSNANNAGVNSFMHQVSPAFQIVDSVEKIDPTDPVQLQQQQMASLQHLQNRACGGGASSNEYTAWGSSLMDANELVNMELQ
Procedure, shortened: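 The binding signal for each feature is its fluorescence intensity in arbitrary units. An Axon 4000B scanner was used to read a custom Agilent array that had been made double-stranded with Cy5-dUTP primer extension, blocked with 2% BSA, incubated at 25 °C for 1 h with 200 nM protein in PBS, 2% BSA, salmon testes DNA and 50 µM zinc acetate, and washed. The protein was an N-terminal polyhistidine–DsRed transcription factor fusion from E. coli BL21-CodonPlus, purified on Ni–NTA.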

Sequence	binding signal
CGGTCAAACCATCCACGCCCGTACGTGCGTAGCCAAACTGCGGAGTCACCTAGTGCAG	3600 fluorescence intensity (a.u.)
TGTCATAAATTGTACCGACATGATACACATGTCCGATACTCGGAGTCACCTAGTGCAG	39400 fluorescence intensity (a.u.)
TCGAGAGGTGGGGAGGGGAGGGGAGCAGAGGGCGGCATCGCGGAGTCACCTAGTGCAG	5110 fluorescence intensity (a.u.)
TTAAGCCAGGTCATCTTTGTTAGCCCTTAGATGAATGGTCCGGAGTCACCTAGTGCAG	31300 fluorescence intensity (a.u.)
ATTTAGTTGATATGACATGTAAGTGCACTGTAATTTTGATCGGAGTCACCTAGTGCAG	3750 fluorescence intensity (a.u.)
TGCAAGTATATTCCGTTCATTGCCAGCTCAAAACCTCTCTCGGAGTCACCTAGTGCAG	3430 fluorescence intensity (a.u.)
GTCGGAGACACCGCTCTGGCGTCCGGAGGAATCGATGAGGCGGAGTCACCTAGTGCAG	12100 fluorescence intensity (a.u.)
TCGTCAGAAGATGAGTCAGAGGATGATCTGTTGTTCAGTACGGAGTCACCTAGTGCAG	7090 fluorescence intensity (a.u.)
CTGCGGCTCCCGCCGGAACCAACGCCATGGTGTCAGATCACGGAGTCACCTAGTGCAG	3850 fluorescence intensity (a.u.)
TAGGGTGAAGATTTCTGGTTTTGTATTTAAGGGACCTAAACGGAGTCACCTAGTGCAG	7690 fluorescence intensity (a.u.)
TTCCTTTTCTGCGTCACTGGTAGTTACAGTATTTTGGCTACGGAGTCACCTAGTGCAG	7780 fluorescence intensity (a.u.)
CCGCCTCCGCGAGTCATCGTCTCTCCAAAGCGAAGCAACCCGGAGTCACCTAGTGCAG	3340 fluorescence intensity (a.u.)
TATTTTATATTAGTGTTCAAACGTTCGATGTGACATGTGTCGGAGTCACCTAGTGCAG	3930 fluorescence intensity (a.u.)
CAGATAAGCTTCAGATTAAGAGCAGGTATAATAGCAGGCTCGGAGTCACCTAGTGCAG	3220 fluorescence intensity (a.u.)
TAACTTAACTGTCCTGCTTACTCATTGGATGAATTGACAGCGGAGTCACCTAGTGCAG	3650 fluorescence intensity (a.u.)
AGGGGAAAGGGGAATTGACGTGGCAAGCCCACATGTGGGTCGGAGTCACCTAGTGCAG	15300 fluorescence intensity (a.u.)
ACAATGTGCCTTGATGGCGTAGAATGCAAGAGCTCACTATCGGAGTCACCTAGTGCAG	3190 fluorescence intensity (a.u.)
CGTCGCTCTCGTCCCTGGCGATCTCCACGCCGACGCCCCGCGGAGTCACCTAGTGCAG	3200 fluorescence intensity (a.u.)
CGCCTCTGCGGTCTCCTTCGTCACCCGCGCGTCAACCAACCGGAGTCACCTAGTGCAG	4290 fluorescence intensity (a.u.)
TTCGAACGAACTTGGCCACGTGTAACAAAGATTTAGCATGCGGAGTCACCTAGTGCAG	12200 fluorescence intensity (a.u.)
TACGGTCTGAACACCCATGTCATCAAATTGGTTGCCCCAACGGAGTCACCTAGTGCAG	6280 fluorescence intensity (a.u.)

Sequence	binding signal
TTCTTCAGTTTGGTAATGTTCCAAAGCCAGATTATGTGTACGGAGTCACCTAGTGCAG	3820 fluorescence intensity (a.u.)
CGCAGCAAGCGTCACGTCACCAACTGTTTGCTCCAACTGTCGGAGTCACCTAGTGCAG	9370 fluorescence intensity (a.u.)
GTATAAAATCAGATGGGTTTGTAGTTAGGGTACAAATTTCCGGAGTCACCTAGTGCAG	3170 fluorescence intensity (a.u.)
AGTCAGTCCGAATTGGACTGTGCCGGCATTGTCATCGCATCGGAGTCACCTAGTGCAG	4760 fluorescence intensity (a.u.)
CTGGTCGGTTCCGCTGACCACCCGTGACTCTTACCACGACCGGAGTCACCTAGTGCAG	3150 fluorescence intensity (a.u.)
AAGCCAAAACTGCTGGCATCACGGCTGATGTCACGGTCTCCGGAGTCACCTAGTGCAG	8750 fluorescence intensity (a.u.)
GTAATTAGTTATTTGAGTAAAGTGTACGGGCGATCCTTAACGGAGTCACCTAGTGCAG	3530 fluorescence intensity (a.u.)
TTGGACTTTAGTGGAGTAGTCATCAATCATTAATGGTTGCCGGAGTCACCTAGTGCAG	4040 fluorescence intensity (a.u.)
CGAACCATCGCGTCGCGTCCCCGTGTCTGTCGAGCGAGATCGGAGTCACCTAGTGCAG	3280 fluorescence intensity (a.u.)
TGAATTCTTATTTCAGCTATTAAAATCTGCACGTCAATTCCGGAGTCACCTAGTGCAG	3960 fluorescence intensity (a.u.)
GTCGGATTGGTGCTTGCATGATCTGTTGGTAGATGGGCTGCGGAGTCACCTAGTGCAG	3180 fluorescence intensity (a.u.)
CCCTCCGTGGACACGTGTAGTCTATCCACCAAGTACACAGCGGAGTCACCTAGTGCAG	5990 fluorescence intensity (a.u.)
TAGTGTCAACCGAATATGACTGGGCTATCTGTTCGTTTCTCGGAGTCACCTAGTGCAG	4700 fluorescence intensity (a.u.)
CAATAGAAGGCCCAAAGCTGATTCAGCGAGCCGTTCTCGCCGGAGTCACCTAGTGCAG	3400 fluorescence intensity (a.u.)
GCCAATGACGATAAGAGCAAAGACGGACGGGAGGGGAGGGCGGAGTCACCTAGTGCAG	3530 fluorescence intensity (a.u.)
TCTACTTGTAAAGGCCCAAGGCCCATGTGGCCGTGCACCTCGGAGTCACCTAGTGCAG	19800 fluorescence intensity (a.u.)
AATTAATCACTTGCTAATGACACGTCTCATTTTGCGTGCTCGGAGTCACCTAGTGCAG	7580 fluorescence intensity (a.u.)
CCTCCTCCCATCGTTGCTGCCACCGCGTCTCCTCCCAATCCGGAGTCACCTAGTGCAG	3420 fluorescence intensity (a.u.)
TTAGTTGTTCTTGTTCTCTTGGTTGGGACGTGGAGAGTTGCGGAGTCACCTAGTGCAG	3440 fluorescence intensity (a.u.)
CTTTGTAATACTTTGTAGGACTTTCTGTTAATATACTCCTCGGAGTCACCTAGTGCAG	30100 fluorescence intensity (a.u.)
GATATTTCTCTTCCCATCCGGCAACCGACAGGGGAGCATTCGGAGTCACCTAGTGCAG	20000 fluorescence intensity (a.u.)

Fetched one by one from above, three records:
Sequence	binding signal
TAGGGTGAAGATTTCTGGTTTTGTATTTAAGGGACCTAAACGGAGTCACCTAGTGCAG	7690 fluorescence intensity (a.u.)
CTTTGTAATACTTTGTAGGACTTTCTGTTAATATACTCCTCGGAGTCACCTAGTGCAG	30100 fluorescence intensity (a.u.)
TAACTTAACTGTCCTGCTTACTCATTGGATGAATTGACAGCGGAGTCACCTAGTGCAG	3650 fluorescence intensity (a.u.)
